According to the supplement of paper PMC12823440, “Inhibitors supercharge kinase turnover through native proteolytic circuits” (Nature, 2025):
Where a name gives a salt, the structure may show the parent alone. This is one part of the list. The calls rarely recur for the same compound in another form.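 In K562 cells expressing nanoluciferase-fused kinases, luminescence was recorded at 4 h intervals between 2 and 18 h, normalized as percent of control with DMSO at 100% and a positive control at 0%. A significant (2 sigma) signal drop marks a time point as decreased. The authors' rule for a hit is not shown and takes in more than the number of time points.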

Amino acid sequences for entries named in this document (tags omitted). A change or cut given only in a name is not applied to a line headed by its entry.
UniProt P31152, whole entry: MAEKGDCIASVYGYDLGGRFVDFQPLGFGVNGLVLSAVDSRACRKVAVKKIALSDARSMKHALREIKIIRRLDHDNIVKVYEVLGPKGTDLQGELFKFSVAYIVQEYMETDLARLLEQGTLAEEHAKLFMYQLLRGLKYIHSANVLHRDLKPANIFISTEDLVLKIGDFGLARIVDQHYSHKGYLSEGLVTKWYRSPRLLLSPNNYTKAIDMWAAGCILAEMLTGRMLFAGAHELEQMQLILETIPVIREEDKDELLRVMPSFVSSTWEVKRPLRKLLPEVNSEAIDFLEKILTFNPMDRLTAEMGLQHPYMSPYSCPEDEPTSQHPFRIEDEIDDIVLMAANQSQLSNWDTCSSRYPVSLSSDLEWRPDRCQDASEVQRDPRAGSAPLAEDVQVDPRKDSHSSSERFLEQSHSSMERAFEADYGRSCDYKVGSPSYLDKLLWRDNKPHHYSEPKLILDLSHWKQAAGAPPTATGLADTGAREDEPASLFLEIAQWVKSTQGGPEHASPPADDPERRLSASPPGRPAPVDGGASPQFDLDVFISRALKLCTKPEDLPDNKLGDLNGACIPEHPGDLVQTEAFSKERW
UniProt Q16288, whole entry, looked up: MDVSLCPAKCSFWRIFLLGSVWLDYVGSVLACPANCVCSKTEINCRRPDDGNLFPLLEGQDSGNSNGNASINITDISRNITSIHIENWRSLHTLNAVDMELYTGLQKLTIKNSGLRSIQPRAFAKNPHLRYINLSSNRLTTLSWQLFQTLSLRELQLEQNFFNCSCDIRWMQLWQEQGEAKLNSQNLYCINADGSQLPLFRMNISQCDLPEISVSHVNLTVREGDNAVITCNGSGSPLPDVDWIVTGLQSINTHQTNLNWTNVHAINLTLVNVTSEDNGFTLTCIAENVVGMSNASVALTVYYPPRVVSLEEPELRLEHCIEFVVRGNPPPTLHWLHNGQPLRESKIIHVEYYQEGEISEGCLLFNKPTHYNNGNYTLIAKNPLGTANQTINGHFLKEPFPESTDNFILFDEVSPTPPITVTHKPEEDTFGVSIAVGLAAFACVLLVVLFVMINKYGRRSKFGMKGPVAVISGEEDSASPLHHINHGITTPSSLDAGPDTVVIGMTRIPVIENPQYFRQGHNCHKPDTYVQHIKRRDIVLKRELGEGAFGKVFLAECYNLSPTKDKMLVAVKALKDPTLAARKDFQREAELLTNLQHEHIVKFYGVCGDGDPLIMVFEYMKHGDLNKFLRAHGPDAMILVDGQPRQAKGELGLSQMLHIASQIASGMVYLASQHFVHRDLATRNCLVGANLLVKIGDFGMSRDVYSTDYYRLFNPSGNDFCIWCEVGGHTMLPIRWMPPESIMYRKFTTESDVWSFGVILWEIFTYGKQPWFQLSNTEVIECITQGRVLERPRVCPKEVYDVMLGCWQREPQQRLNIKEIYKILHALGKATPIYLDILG
UniProt O96013: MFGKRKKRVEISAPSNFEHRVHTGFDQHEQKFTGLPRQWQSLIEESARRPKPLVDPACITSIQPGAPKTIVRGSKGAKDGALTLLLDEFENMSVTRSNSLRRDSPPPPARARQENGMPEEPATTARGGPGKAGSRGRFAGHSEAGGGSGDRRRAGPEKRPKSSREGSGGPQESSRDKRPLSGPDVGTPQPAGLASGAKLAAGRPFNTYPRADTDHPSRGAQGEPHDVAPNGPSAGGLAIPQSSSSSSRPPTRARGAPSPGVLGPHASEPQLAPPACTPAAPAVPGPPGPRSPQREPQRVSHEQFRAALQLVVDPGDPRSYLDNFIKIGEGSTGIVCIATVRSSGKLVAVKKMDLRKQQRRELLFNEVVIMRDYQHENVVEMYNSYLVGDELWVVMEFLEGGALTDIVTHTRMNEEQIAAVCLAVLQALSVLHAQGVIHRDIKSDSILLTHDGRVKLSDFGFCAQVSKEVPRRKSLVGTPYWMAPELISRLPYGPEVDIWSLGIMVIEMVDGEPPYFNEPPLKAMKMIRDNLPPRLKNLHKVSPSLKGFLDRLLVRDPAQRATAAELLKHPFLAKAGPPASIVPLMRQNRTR
UniProt Q96KB5: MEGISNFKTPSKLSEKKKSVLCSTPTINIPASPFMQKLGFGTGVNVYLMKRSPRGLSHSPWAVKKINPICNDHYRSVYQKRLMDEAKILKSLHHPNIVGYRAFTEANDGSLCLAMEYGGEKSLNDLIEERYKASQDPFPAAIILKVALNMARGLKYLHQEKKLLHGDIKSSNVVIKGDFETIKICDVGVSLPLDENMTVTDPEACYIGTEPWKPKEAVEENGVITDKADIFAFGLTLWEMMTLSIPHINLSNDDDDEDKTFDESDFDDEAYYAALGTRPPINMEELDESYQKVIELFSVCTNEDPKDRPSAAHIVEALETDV
UniProt Q15118, whole entry, looked up: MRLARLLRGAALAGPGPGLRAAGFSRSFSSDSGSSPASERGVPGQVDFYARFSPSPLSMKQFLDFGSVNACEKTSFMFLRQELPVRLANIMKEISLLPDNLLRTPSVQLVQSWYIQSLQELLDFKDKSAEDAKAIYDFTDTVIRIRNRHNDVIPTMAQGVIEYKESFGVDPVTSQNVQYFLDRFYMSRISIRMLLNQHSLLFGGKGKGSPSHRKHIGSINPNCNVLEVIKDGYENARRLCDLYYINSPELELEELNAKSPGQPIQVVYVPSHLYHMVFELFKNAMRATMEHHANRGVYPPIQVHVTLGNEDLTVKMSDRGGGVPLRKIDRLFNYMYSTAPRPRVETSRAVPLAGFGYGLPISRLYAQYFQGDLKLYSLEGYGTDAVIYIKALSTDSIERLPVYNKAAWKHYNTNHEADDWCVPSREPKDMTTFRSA
UniProt P42356, whole entry, looked up: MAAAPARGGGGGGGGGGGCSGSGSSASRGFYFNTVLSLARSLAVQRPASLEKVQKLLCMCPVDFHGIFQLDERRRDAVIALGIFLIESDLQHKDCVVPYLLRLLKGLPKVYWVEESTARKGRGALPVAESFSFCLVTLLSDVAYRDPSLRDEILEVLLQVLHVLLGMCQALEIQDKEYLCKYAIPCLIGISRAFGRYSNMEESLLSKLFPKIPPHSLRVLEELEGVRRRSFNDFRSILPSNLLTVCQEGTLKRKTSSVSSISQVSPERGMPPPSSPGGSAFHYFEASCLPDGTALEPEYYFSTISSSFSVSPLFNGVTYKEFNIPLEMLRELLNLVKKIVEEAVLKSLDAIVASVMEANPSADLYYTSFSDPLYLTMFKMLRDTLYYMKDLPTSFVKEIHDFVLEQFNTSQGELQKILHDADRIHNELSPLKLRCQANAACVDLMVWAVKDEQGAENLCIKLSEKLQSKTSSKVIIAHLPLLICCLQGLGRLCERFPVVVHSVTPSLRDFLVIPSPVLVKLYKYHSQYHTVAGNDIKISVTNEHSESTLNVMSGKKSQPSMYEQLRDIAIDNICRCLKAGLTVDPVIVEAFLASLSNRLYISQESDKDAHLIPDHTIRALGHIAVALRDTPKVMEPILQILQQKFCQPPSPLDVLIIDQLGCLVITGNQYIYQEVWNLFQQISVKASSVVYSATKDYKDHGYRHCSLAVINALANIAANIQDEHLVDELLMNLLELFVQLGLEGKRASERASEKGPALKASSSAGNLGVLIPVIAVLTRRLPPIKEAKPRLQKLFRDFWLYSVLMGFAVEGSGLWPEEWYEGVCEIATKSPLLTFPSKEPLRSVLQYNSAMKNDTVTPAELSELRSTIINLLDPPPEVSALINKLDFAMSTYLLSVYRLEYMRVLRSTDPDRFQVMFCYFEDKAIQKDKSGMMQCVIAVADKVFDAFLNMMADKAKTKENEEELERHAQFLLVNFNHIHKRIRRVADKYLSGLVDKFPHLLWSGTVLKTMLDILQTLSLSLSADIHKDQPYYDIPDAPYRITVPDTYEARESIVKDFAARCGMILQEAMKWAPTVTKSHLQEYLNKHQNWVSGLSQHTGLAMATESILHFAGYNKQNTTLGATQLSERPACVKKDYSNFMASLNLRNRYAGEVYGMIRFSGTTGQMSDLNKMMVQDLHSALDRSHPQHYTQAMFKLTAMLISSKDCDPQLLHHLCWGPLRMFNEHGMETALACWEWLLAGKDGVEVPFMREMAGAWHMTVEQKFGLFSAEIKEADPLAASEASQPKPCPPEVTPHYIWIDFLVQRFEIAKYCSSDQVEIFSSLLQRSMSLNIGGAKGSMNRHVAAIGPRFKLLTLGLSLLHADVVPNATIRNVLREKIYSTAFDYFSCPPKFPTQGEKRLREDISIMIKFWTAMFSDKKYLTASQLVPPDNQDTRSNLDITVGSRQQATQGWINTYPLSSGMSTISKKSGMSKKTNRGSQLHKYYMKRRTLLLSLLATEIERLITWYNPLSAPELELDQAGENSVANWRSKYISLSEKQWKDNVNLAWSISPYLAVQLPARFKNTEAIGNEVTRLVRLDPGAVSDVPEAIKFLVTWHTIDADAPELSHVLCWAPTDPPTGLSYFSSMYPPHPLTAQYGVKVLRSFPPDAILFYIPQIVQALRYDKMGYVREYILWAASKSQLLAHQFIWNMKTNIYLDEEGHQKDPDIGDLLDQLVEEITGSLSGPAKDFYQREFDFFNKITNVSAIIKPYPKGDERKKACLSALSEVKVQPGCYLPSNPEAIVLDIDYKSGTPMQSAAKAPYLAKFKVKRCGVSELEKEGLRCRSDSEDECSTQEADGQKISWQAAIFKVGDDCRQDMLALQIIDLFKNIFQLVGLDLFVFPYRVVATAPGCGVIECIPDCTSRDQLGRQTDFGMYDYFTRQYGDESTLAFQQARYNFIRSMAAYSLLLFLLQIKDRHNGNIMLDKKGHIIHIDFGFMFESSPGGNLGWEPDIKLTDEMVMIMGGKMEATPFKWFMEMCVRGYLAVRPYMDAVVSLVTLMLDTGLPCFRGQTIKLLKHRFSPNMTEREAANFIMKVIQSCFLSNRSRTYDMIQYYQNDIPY
UniProt Q9UBF8: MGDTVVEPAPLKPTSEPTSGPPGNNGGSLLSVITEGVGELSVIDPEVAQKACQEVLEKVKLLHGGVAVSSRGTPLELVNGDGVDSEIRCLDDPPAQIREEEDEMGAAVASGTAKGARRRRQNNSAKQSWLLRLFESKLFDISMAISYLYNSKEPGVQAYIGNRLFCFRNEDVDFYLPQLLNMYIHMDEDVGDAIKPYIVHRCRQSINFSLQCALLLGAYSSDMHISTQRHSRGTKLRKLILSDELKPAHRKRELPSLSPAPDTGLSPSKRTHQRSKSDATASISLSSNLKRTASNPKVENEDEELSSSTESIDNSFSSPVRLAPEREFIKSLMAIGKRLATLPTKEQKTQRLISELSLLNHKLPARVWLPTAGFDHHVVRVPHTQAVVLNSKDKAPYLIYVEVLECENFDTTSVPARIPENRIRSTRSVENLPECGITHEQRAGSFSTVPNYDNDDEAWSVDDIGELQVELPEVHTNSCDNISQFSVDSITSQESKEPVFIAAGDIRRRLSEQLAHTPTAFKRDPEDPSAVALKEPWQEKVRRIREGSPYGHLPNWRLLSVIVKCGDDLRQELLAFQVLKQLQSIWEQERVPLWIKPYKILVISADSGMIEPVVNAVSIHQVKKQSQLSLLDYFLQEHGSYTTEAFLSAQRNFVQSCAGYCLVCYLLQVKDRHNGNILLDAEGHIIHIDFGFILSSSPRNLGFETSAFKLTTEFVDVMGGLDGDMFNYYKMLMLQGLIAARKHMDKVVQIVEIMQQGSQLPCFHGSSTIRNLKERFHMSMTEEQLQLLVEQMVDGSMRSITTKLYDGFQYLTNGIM
UniProt P53350, whole entry: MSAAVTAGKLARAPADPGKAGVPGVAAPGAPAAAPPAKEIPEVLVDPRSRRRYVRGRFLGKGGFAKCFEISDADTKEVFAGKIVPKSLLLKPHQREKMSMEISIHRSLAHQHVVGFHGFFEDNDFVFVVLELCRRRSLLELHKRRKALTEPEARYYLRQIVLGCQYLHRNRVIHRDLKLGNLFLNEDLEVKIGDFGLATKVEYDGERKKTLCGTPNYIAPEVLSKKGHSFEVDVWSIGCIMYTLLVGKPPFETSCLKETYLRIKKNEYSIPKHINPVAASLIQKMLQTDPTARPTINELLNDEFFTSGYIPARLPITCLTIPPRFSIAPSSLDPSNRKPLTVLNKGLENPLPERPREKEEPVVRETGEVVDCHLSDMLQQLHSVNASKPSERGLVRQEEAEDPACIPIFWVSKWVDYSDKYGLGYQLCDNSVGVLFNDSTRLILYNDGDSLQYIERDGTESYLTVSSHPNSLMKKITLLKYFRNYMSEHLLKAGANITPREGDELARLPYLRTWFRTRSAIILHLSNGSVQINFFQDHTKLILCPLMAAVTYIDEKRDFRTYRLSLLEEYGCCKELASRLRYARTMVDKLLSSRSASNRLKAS

Columns and labels:
Experiment in all cases: kinase-Nluc reporter destabilization hit call (1 = scored as downregulated) (binary); higher = compound decreases kinase abundance
Settings in all cases: K562, 2-18 h
[1] = biological target: MAPK1 (UniProt P28482)
[2] = biological target: MAPK4 (UniProt P31152)
[3] = biological target: MAPKAPK2 (UniProt P49137)
[4] = biological target: MKNK1 (UniProt Q9BUB5)
[5] = biological target: NTRK2 (UniProt Q16620)
[6] = biological target: NTRK3 (UniProt Q16288)
[7] = biological target: PAK4 (UniProt O96013)
[8] = biological target: PBK (UniProt Q96KB5)
[9] = biological target: PDGFRB (UniProt P09619)
[10] = biological target: PDK1 (UniProt Q15118)
[11] = biological target: PDPK1 (UniProt O15530)
[12] = biological target: PIK4CA (UniProt P42356)
[13] = biological target: PIK4CB (UniProt Q9UBF8)
[14] = biological target: PLK1 (UniProt P53350)
[15] = biological target: PRKAA1 (UniProt Q13131)
[16] = biological target: PRKCA (UniProt P17252)
[17] = biological target: PTK2 (UniProt Q05397)
[18] = biological target: PTK2B (UniProt Q14289)
[19] = biological target: RAF1 (UniProt P04049)
[20] = biological target: RAF1_S257L (clone: RAF1_mut) (UniProt P04049)

SMILES	kinase-Nluc reporter destabilization hit call ([1]; 10 µM)	kinase-Nluc reporter destabilization hit call ([2]; 10 µM)	kinase-Nluc reporter destabilization hit call ([3]; 10 µM)	kinase-Nluc reporter destabilization hit call ([4]; 10 µM)	kinase-Nluc reporter destabilization hit call ([5]; 10 µM)	kinase-Nluc reporter destabilization hit call ([6]; 10 µM)	kinase-Nluc reporter destabilization hit call ([7]; 10 µM)	kinase-Nluc reporter destabilization hit call ([8]; 10 µM)	kinase-Nluc reporter destabilization hit call ([9]; 10 µM)	kinase-Nluc reporter destabilization hit call ([10]; 10 µM)	kinase-Nluc reporter destabilization hit call ([11]; 10 µM)	kinase-Nluc reporter destabilization hit call ([12]; 10 µM)	kinase-Nluc reporter destabilization hit call ([13]; 10 µM)	kinase-Nluc reporter destabilization hit call ([14]; 10 µM)	kinase-Nluc reporter destabilization hit call ([15]; 10 µM)	kinase-Nluc reporter destabilization hit call ([16]; 10 µM)	kinase-Nluc reporter destabilization hit call ([17]; 10 µM)	kinase-Nluc reporter destabilization hit call ([18]; 10 µM)	kinase-Nluc reporter destabilization hit call ([19]; 10 µM)	kinase-Nluc reporter destabilization hit call ([20]; 10 µM)	kinase-Nluc reporter destabilization hit call ([1]; 2.5 µM)	kinase-Nluc reporter destabilization hit call ([2]; 2.5 µM)	kinase-Nluc reporter destabilization hit call ([3]; 2.5 µM)	kinase-Nluc reporter destabilization hit call ([4]; 2.5 µM)	kinase-Nluc reporter destabilization hit call ([5]; 2.5 µM)	kinase-Nluc reporter destabilization hit call ([6]; 2.5 µM)	kinase-Nluc reporter destabilization hit call ([7]; 2.5 µM)	kinase-Nluc reporter destabilization hit call ([8]; 2.5 µM)	kinase-Nluc reporter destabilization hit call ([9]; 2.5 µM)	kinase-Nluc reporter destabilization hit call ([10]; 2.5 µM)	kinase-Nluc reporter destabilization hit call ([11]; 2.5 µM)	kinase-Nluc reporter destabilization hit call ([12]; 2.5 µM)	kinase-Nluc reporter destabilization hit call ([13]; 2.5 µM)	kinase-Nluc reporter destabilization hit call ([14]; 2.5 µM)	kinase-Nluc reporter destabilization hit call ([15]; 2.5 µM)	kinase-Nluc reporter destabilization hit call ([16]; 2.5 µM)	kinase-Nluc reporter destabilization hit call ([17]; 2.5 µM)	kinase-Nluc reporter destabilization hit call ([18]; 2.5 µM)	kinase-Nluc reporter destabilization hit call ([19]; 2.5 µM)	kinase-Nluc reporter destabilization hit call ([20]; 2.5 µM)
Nc1ncccc1-c1nc2ccc(-c3ccccc3)nc2n1-c1ccc(C2(N)CCC2)cc1 [Miransertib]	inactive: 0	inactive: 0	inactive: 0	inactive: 0	inactive: 0	inactive: 0	inactive: 0	inactive: 0	inactive: 0	inactive: 0	inactive: 0	inactive: 0	inactive: 0	inactive: 0	inactive: 0	inactive: 0	inactive: 0	inactive: 0	inactive: 0	inactive: 0	–	–	–	–	–	–	–	–	–	–	–	–	–	–	–	–	–	–	–	–
C=CC(=O)N1CCC[C@@H](n2nc(-c3ccc(Oc4ccccc4)cc3)c3c(N)ncnc32)C1 [Ibrutinib]	–	–	–	–	–	–	–	–	–	–	–	–	–	–	–	–	–	–	–	–	inactive: 0	inactive: 0	inactive: 0	inactive: 0	inactive: 0	inactive: 0	inactive: 0	inactive: 0	inactive: 0	inactive: 0	inactive: 0	inactive: 0	inactive: 0	inactive: 0	inactive: 0	inactive: 0	inactive: 0	inactive: 0	inactive: 0	inactive: 0
COc1ccc(-c2cc3nccn3c(Nc3ncccc3C(N)=O)n2)cc1OC [BAY 61-3606 (dihydrochloride)]	–	–	–	–	–	–	–	–	–	–	–	–	–	–	–	–	–	–	–	–	inactive: 0	inactive: 0	inactive: 0	inactive: 0	inactive: 0	inactive: 0	inactive: 0	inactive: 0	inactive: 0	inactive: 0	inactive: 0	inactive: 0	inactive: 0	inactive: 0	inactive: 0	inactive: 0	inactive: 0	inactive: 0	inactive: 0	inactive: 0
C[C@H]1Oc2cc(cnc2N)-c2c(nn(C)c2C#N)CN(C)C(=O)c2ccc(F)cc21 [Lorlatinib]	inactive: 0	inactive: 0	inactive: 0	inactive: 0	inactive: 0	inactive: 0	inactive: 0	inactive: 0	inactive: 0	inactive: 0	inactive: 0	inactive: 0	inactive: 0	inactive: 0	inactive: 0	inactive: 0	inactive: 0	inactive: 0	inactive: 0	inactive: 0	–	–	–	–	–	–	–	–	–	–	–	–	–	–	–	–	–	–	–	–
CCCCCCCCCCCCc1ccc(S(=O)(=O)Nc2nncs2)cc1	inactive: 0	inactive: 0	inactive: 0	inactive: 0	active: 1	inactive: 0	inactive: 0	inactive: 0	inactive: 0	inactive: 0	inactive: 0	inactive: 0	inactive: 0	inactive: 0	inactive: 0	inactive: 0	inactive: 0	inactive: 0	inactive: 0	inactive: 0	–	–	–	–	–	–	–	–	–	–	–	–	–	–	–	–	–	–	–	–
Cc1nc(Nc2ncc(C(=O)Nc3c(C)cccc3Cl)s2)cc(N2CCN(CCO)CC2)n1 [Dasatinib]	–	–	–	–	–	–	–	–	–	–	–	–	–	–	–	–	–	–	–	–	inactive: 0	inactive: 0	inactive: 0	inactive: 0	inactive: 0	inactive: 0	inactive: 0	inactive: 0	inactive: 0	inactive: 0	inactive: 0	inactive: 0	inactive: 0	inactive: 0	inactive: 0	inactive: 0	inactive: 0	inactive: 0	inactive: 0	inactive: 0
Cc1cc(C)n2c1C=C1C=CC(CCC(=O)NCCN3CCN(C/C=C/C(=O)N4CCCC(n5nc(-c6ccc(Oc7ccccc7)cc6)c6c(N)ncnc65)C4)CC3)=[N+]1[B-]2(F)F (stereo not given)	–	–	–	–	–	–	–	–	–	–	–	–	–	–	–	–	–	–	–	–	inactive: 0	inactive: 0	inactive: 0	inactive: 0	inactive: 0	inactive: 0	inactive: 0	inactive: 0	inactive: 0	inactive: 0	inactive: 0	inactive: 0	inactive: 0	inactive: 0	inactive: 0	inactive: 0	inactive: 0	inactive: 0	inactive: 0	inactive: 0
C=CC(=O)N(C)CCOc1c(N)ncnc1-c1cc(F)cc(NC(=O)c2ccc(C3CC3)cc2F)c1C [Remibrutinib]	inactive: 0	inactive: 0	inactive: 0	inactive: 0	inactive: 0	inactive: 0	inactive: 0	inactive: 0	inactive: 0	inactive: 0	inactive: 0	inactive: 0	inactive: 0	inactive: 0	inactive: 0	inactive: 0	inactive: 0	inactive: 0	inactive: 0	inactive: 0	–	–	–	–	–	–	–	–	–	–	–	–	–	–	–	–	–	–	–	–
Cc1ccc2c(=O)c3cccc(CC(=O)O)c3oc2c1C [Vadimezan]	inactive: 0	inactive: 0	inactive: 0	inactive: 0	inactive: 0	inactive: 0	inactive: 0	inactive: 0	inactive: 0	inactive: 0	inactive: 0	inactive: 0	inactive: 0	inactive: 0	inactive: 0	inactive: 0	inactive: 0	inactive: 0	inactive: 0	inactive: 0	–	–	–	–	–	–	–	–	–	–	–	–	–	–	–	–	–	–	–	–

Limited to kinase-Nluc reporter destabilization hit call ([3]; 10 µM), for 2 of the compounds above:
SMILES	kinase-Nluc reporter destabilization hit call ([3]; 10 µM)
C[C@H]1Oc2cc(cnc2N)-c2c(nn(C)c2C#N)CN(C)C(=O)c2ccc(F)cc21 [Lorlatinib]	inactive: 0
Cc1ccc2c(=O)c3cccc(CC(=O)O)c3oc2c1C [Vadimezan]	inactive: 0
